Record: PubChem BioAssay AID1259405 (NCATS, 2018)
This is one part, drawn at random, of about 50,000 reagents. About 4,000 of all reagents (8%) were called active. 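Mouse siRNA library applied to hamster cells; one well for each siRNA.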 Unmarked entries are inactive. Reagents against one gene are numbered here. No sequences are given here.

Assay: 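Mouse-designed siRNAs used to find CHO productivity engineering targets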 (primary screen)
Cells: Chinese hamster CHO-K1 ovary cells with stable secreted eGFP expression
Reagent: single siRNA against mouse genes, 0.8 pmol siRNA per well (2 µl of 400 nM stock)
Time to read-out: 3 days
Read-out: 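Per-well intracellular GFP measured by laser scanning cytometry, plus viability from ATP luminescence, each relative to plate median of non-targeting control wells, in %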
Scale: GFP, % of control: higher = more GFP per well, higher productivity; viability (ATP), % of control: higher = more viable cells (more ATP)
Call rule: 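a knock-down is called active if GFP reaches 120% or more of non-targeting control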

gene | reagent | GFP, % of control | viability (ATP), % of control
Ppp1cb | 1 | 96.1 | 91.6
Ppp1cb | 2 | 77.2 | 74.1
Ppp1cb | 3 | 173 (active) | 80.2
Nudt18 | 1 | 62.1 | 77.6
Nudt18 | 2 | 77.3 | 80.8
Nudt18 | 3 | 53.8 | 56.5
Srxn1 | 1 | 108 | 82.8
Srxn1 | 2 | 89.6 | 96.5
Srxn1 | 3 | 64 | 52
Or11g7 | 1 | 123 (active) | 96
Or11g7 | 2 | 87.5 | 97
Or11g7 | 3 | 57.2 | 51.6
1700001O22Rik | 1 | 128 (active) | 112
1700001O22Rik | 2 | 84.3 | 64.8
1700001O22Rik | 3 | 91.2 | 40.1
Klf8 | 1 | 73.7 | 88.4
Klf8 | 2 | 74.1 | 93.9
Klf8 | 3 | 67.7 | 97.7
Ror2 | 1 | 59.9 | 48
Ppp2r5c | 1 | 109 | 91
Ppp2r5c | 2 | 60.6 | 54.5
Ppp2r5c | 3 | 68.8 | 64
Itln1 | 1 | 44 | 59
Itln1 | 2 | 100 | 73.5
Washc5 | 1 | 90.5 | 102
Washc5 | 2 | 112 | 77.2
Washc5 | 3 | 69.8 | 71.6
Gpt | 1 | 46.4 | 81.1
Gpt | 2 | 74.1 | 72.7
Gpt | 3 | 78.1 | 75.9
Mllt1 | 1 | 129 (active) | 78.9
Mllt1 | 2 | 106 | 69.9
Mllt1 | 3 | 154 (active) | 121
Dnajb1 | 1 | 69.6 | 87.3
Dnajb1 | 2 | 57.4 | 47.3
Dnajb1 | 3 | 81.2 | 127
Tedc2 | 1 | 100 | 58.9
Tedc2 | 2 | 134 (active) | 101
Tedc2 | 3 | 142 (active) | 98.2
Rassf10 | 1 | 75.6 | 80.4
Rassf10 | 2 | 65.5 | 62.7
Rassf10 | 3 | 88.8 | 73.2
Armh4 | 1 | 71.7 | 54.4
Armh4 | 2 | 147 (active) | 108
Armh4 | 3 | 111 | 131
Lif | 1 | 107 | 102
Lif | 2 | 83.9 | 77.2
Mettl16 | 1 | 72.1 | 90.2
Mettl16 | 2 | 55.1 | 85.6
Mettl16 | 3 | 101 | 64.7
Pilrb1 | 1 | 43.4 | 21.2
Pilrb1 | 2 | 57.5 | 57
Pilrb1 | 3 | 111 | 75.3
Atp13a2 | 1 | 88.6 | 71.4
Atp13a2 | 2 | 104 | 96.5
Atp13a2 | 3 | 94.9 | 62.4
Ccdc159 | 1 | 104 | 72.6
Ccdc159 | 2 | 82.1 | 82.6
Ccdc159 | 3 | 89.3 | 74.3
Uba3 | 1 | 52.7 | 80.7
Uba3 | 2 | 72.7 | 82.6
Uba3 | 3 | 73.1 | 111
Ppm1h | 1 | 79.1 | 56.6
Ppm1h | 2 | 84.5 | 50.4
Ppm1h | 3 | 87 | 63.1
Btn1a1 | 1 | 118 | 106
Btn1a1 | 2 | 72.9 | 61.9
Aym1 | 1 | 133 (active) | 83.2
Aym1 | 2 | 69.8 | 71.6
Aym1 | 3 | 75.1 | 82.2
Lpin2 | 1 | 73.1 | 70.5
Lpin2 | 2 | 75.3 | 84
Lpin2 | 3 | 50.2 | 54.6
Bach1 | 1 | 71.6 | 70.8
Bach1 | 2 | 111 | 77.9
Bach1 | 3 | 62.4 | 90.5
Ctsd | 1 | 75.5 | 83.9
Ctsd | 2 | 65 | 80.3
Ctsd | 3 | 71.5 | 41.8
Egf | 1 | 67.6 | 89
Egf | 2 | 79.8 | 75
Ephx3 | 1 | 89.1 | 66.4
Ephx3 | 2 | 80.7 | 78.9
Ephx3 | 3 | 76.5 | 83.9

6 of these entries, set out differently.
gene,reagent,"GFP, % of control","viability (ATP), % of control"
Ppp2r5c,3,68.8,64
Itln1,1,44,59
Itln1,2,100,73.5
Washc5,1,90.5,102
Washc5,2,112,77.2
Washc5,3,69.8,71.6
